From paper PMC9677703 come the findings set out here.

The chains behind the UniProt entries cited, without tags or fusion partners.
UniProt Q9NYF8: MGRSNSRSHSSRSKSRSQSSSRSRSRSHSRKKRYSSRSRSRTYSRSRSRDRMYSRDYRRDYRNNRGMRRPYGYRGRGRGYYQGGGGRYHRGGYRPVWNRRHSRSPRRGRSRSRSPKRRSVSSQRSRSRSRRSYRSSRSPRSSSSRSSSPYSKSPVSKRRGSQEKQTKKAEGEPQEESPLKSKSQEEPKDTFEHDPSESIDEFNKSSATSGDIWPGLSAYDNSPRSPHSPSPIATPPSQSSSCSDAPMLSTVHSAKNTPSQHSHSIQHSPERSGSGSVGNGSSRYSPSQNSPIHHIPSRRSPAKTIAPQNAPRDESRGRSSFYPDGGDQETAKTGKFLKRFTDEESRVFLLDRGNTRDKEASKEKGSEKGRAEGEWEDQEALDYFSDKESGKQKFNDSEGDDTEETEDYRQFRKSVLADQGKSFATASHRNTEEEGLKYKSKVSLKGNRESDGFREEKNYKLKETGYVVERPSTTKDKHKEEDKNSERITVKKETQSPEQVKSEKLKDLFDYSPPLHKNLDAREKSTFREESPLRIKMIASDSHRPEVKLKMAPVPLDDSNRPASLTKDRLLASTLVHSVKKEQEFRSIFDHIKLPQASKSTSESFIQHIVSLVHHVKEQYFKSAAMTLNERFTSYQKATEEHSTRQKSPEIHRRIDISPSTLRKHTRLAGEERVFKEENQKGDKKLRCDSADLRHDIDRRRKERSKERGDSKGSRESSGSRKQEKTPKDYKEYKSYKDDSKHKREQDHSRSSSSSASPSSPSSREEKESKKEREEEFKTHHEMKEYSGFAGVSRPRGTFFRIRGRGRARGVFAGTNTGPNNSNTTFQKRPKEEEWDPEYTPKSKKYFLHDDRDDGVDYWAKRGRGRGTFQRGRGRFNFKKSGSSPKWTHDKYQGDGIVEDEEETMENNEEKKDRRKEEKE
UniProt Q14978: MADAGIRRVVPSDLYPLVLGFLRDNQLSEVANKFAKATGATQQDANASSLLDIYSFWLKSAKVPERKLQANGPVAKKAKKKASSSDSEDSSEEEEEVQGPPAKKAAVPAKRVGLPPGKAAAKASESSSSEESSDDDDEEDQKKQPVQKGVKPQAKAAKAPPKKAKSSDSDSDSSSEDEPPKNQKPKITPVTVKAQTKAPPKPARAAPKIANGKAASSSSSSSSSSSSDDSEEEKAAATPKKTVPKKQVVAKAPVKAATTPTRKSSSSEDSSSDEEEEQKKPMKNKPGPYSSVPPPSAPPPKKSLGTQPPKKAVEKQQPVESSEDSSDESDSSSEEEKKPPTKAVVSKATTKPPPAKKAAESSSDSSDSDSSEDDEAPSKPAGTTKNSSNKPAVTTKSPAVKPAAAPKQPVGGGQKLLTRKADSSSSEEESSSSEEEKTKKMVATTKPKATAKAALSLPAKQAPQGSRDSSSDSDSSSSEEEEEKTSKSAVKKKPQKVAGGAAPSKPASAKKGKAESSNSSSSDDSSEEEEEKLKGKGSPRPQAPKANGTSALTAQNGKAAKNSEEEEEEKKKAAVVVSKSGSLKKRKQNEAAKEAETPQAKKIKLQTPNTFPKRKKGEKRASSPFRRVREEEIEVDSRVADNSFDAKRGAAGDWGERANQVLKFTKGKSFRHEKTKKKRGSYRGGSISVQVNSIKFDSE

The target of this assay is T1, recombinant His-tagged FGF12 (UniProt P61328).
T1 sequence: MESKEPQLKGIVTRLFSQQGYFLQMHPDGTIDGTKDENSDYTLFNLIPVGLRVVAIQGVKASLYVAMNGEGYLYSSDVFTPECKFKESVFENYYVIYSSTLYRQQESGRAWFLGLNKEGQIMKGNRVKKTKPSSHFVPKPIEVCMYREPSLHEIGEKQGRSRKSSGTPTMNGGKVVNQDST
The assay can be described thus: affinity purification with mass spectrometry; recombinant His-tagged FGF12 coupled to Ni-NTA / Ni Sepharose resin, incubated with U2OS cell lysate; on-bead trypsin digestion, LC-MS/MS; only the target purified.

Results are given in words; binding and its absence hold for the method and conditions named. Binding seen in cells or lysates may run through a third protein. These calls come from enrichment with a bait or labelling near it, and not all partners need be listed. Tags and fused reporters may be left off the sequences shown.

On to “Bcl-2-associated transcription factor 1 (from UniProt Q9NYF8 1-920)”, for which the binding entry is “binds”. Turning to “nucleolar and coiled-body phosphoprotein 1 (from UniProt Q14978 1-699)”, the binding result is “binds”.
